From PubChem BioAssay AID493014 (National Center for Advancing Translational Sciences (NCATS), 2011) come the findings set out here.

The experiment in a line: qHTS Assay to Find Inhibitors of Chronic Active B-Cell Receptor Signaling. The settings on record: ABC-DLBCL IkBa-CBG/CBR reporter, luminescence ratio (green luciferase fused to IkBa over red control in TMD8 lymphoma cells), 4 h. The procedure, abridged: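 TMD8 ABC-DLBCL cells carrying doxycycline-inducible green luciferase fused to IkappaBalpha plus unfused red luciferase were exposed to compounds (up to 46 uM) for 4 hrs at 37C. Activity came from the overlap-corrected green/red luminescence ratio.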
(In qHTS, concentration-response curves come from the screen itself.)

Where [1] appears, read: measured here: CBR red luminescence, cell number.
Setting [2] is: measured here: IkBa-CBG green luminescence.

The list shows a part of the results. These are further read-outs of the screen, such as a control signal, another cell line or another target. No call is given for them. Compounds called inactive in the main read-out are mostly missing here. The note in brackets gives the kind of curve behind each potency; many fits are weak.

One may read the AC50 as the midpoint of the concentration-response curve, whichever way the signal moves. Regarding `COc1ccc(C(=O)N/N=C/c2ccc(OC)c(CN3CCCc4ccccc43)c2)cc1`, the AC50 under setting [1] is 16.4 µM [falling, single point].

Take `CCCc1nnc(NC(=S)Nc2ccccc2)s1`: the AC50 reads like this: under setting [1], 3.55 µM [falling, full curve]; under setting [2], 7.08 µM [falling, partial curve].

Regarding `CCOC(=O)C1=NNC2(c3ccc(Cl)cc3)C(=O)N(c3ccc(C)cc3)C(=O)C12` (stereo unspecified), the AC50 under setting [1] is 9.2 µM [rising, partial curve, poor fit].

In the case of `Cc1ccccc1C(=O)c1cccn1CC(=O)NC(C)c1ccc2c(c1)OCCO2` (stereo unspecified), under setting [1], the AC50 was 25.1 µM [falling, single point].

In the case of `CCOC(=O)c1nc2c(ccc3ccccc32)cc1C`, the AC50 under setting [1] is 17.8 µM [rising, partial curve, poor fit].

Consider `NC(N)=Nc1nc(-c2ccccc2)c2cc(F)ccc2n1`, for which the AC50 under setting [1] is 15.8 µM [falling, partial curve, poor fit].

For the compound `Clc1ccccc1OCc1nn2c(-c3ccncc3)nnc2s1`, the AC50 under setting [2] was 3.66 µM [rising, partial curve, poor fit].

Take `CC(C)CC(=O)NC(=S)Nc1ccc(N2CCN(C(=O)c3cccs3)CC2)cc1`: the AC50 under setting [1] is 0.0891 µM [falling, full curve, poor fit].

For `N#Cc1c(C(F)(F)F)cc(-c2ccco2)nc1SCc1ccncc1`, the AC50 under setting [1] was 0.562 µM [falling, partial curve, poor fit].

Regarding `O=[N+]([O-])c1ccc(Nc2ccccc2O)c2nonc12`, under setting [1], the AC50 was 35.5 µM [falling, single point].

With `CCCC12CN3CC(C)(CN(C1)C31CCCCC1)C2=O`, the AC50 under setting [1] was 25.9 µM [rising, single point].

Consider `O=C(NCCN1C(=O)S/C(=C\c2ccc(Cl)c([N+](=O)[O-])c2)C1=O)C1=COCCO1`, for which the AC50 under setting [1] was 20.6 µM [falling, partial curve].

On to `O=C(NC1(C(=O)NC2CCCCC2)CCCCC1)c1ccc2c(c1)OCO2`, for which the AC50 under setting [1] was 1.84 µM [rising, full curve, poor fit].

In the case of `CN(C)CCCN(C(=O)COc1ccccc1)c1nc2ccc(F)cc2s1`, the AC50 under setting [1] is 35.5 µM [falling, single point].

On to `CN1CCN(c2ccccc2NC(=O)c2ccc(N3CCCCC3)c([N+](=O)[O-])c2)CC1`, for which the AC50 under setting [1] was 8.91 µM [falling, partial curve, poor fit].

On to `COc1ccc(S(=O)(=O)N2CCCCCC2)cc1C(=O)Nc1cccc(C)n1`, for which the AC50 under setting [1] is 8.91 µM [falling, partial curve].

Consider `COc1ccc(C(=O)NC(C)CCc2ccccc2)cc1` (stereo unspecified), for which the AC50 under setting [1] was 5.01 µM [rising, full curve].

Turning to `CCC(=NCc1ccco1)c1c(C(F)(F)F)[nH]n(-c2nc3ccccc3s2)c1=O`, under setting [1], the AC50 is 8.2 µM [falling, partial curve].

For the compound `COc1cc(N2CCCC2)c(OC)cc1/C=C1/NC(=S)NC1=O`, the AC50 under setting [1] is 20.6 µM [rising, single point].

On to `CC(C)OCCCNC(=O)CCC(=O)NNc1nc2ccccc2c2nc(-c3ccccc3)nn12`, for which, under setting [1], the AC50 is 6.51 µM [rising, single point].

Turning to `CC(NC(=O)C1CC12CCC2)c1ccccc1` (stereo unspecified), the AC50 under setting [1] is 0.366 µM [rising, full curve, poor fit].

For the compound `CC(C)(C)[C@@H]1COC(=O)[C@H](Cc2ccc(F)cc2)C/C=C\C[C@@H](CC(=O)N(CCO)Cc2ccccc2)C(=O)N1`, the AC50 under setting [1] was 6.51 µM [falling, single point].

Consider `CN1CCN(C(=O)c2cc(-c3ccccc3)on2)CC1`, for which the AC50 under setting [1] is 32.6 µM [falling, single point].

As for `Cc1cc(/C=C2\SC(=O)NC2=O)c(C)n1-c1ccc(N(C)C)cc1`, under setting [1], the AC50 was 12.6 µM [rising, partial curve].

Consider `CCc1cc2c(N3CCN(c4nnc(CC)s4)CC3)ncnc2s1`, for which the AC50 under setting [1] was 11.2 µM [falling, single point].

As to `O=C(NNc1ccccc1Br)C(O)(c1cccc(C(F)(F)F)c1)c1cccc(C(F)(F)F)c1`, the AC50 under setting [1] was 29.1 µM [falling, single point].

Consider `COc1ccc(N2CCN(CCC(N)=O)CC2)cc1`, for which, under setting [1], the AC50 was 18.4 µM [rising, single point].

On to `CC1Cc2ccccc2N1C(=O)CSc1nnc(Cc2ccccc2)n1CCc1ccccc1` (stereo unspecified), for which the concentration at half-maximal activity (AC50) under setting [1] is 32.6 µM [falling, single point].

Take `Cc1c(Cl)cccc1NC(=S)NN`: the AC50 under setting [1] was 35.5 µM [falling, single point].

As for `Cc1ccc(S(=O)(=O)NC(CN2CCOCC2)=NCCNS(=O)(=O)c2ccccc2)cc1`, the AC50 under setting [1] is 29.1 µM [falling, single point].

On to `COc1ccc(NC(=O)/C(Cl)=C(/Cl)S(=O)Cc2ccccc2Cl)cn1` (stereo unspecified), for which, under setting [1], the AC50 was 3.98 µM [falling, full curve].

In the case of `CCOc1ccc(OCCNC(=O)c2cc(C3CC3)nc3c2cnn3C(C)C)cc1`, the AC50 under setting [1] was 4.11 µM [falling, partial curve].

For the compound `CCOC(=O)c1sc(NC(=O)c2ccccc2OC)nc1C`, under setting [1], the AC50 was 0.058 µM [falling, full curve].

Consider `Cc1occc1-c1nnc(SCC(=O)Nc2ccccn2)o1`, for which the AC50 under setting [1] was 35.5 µM [falling, single point].

For `Cc1ccc(C(=O)OCC(=O)c2ccc(Cl)s2)s1`, under setting [1], the AC50 was 16.4 µM [rising, partial curve].

On to `O=C(COc1ccc(C(=O)c2ccc(F)cc2)cc1)Nc1cccc(S(=O)(=O)N2CCOCC2)c1`, for which the concentration at half-maximal activity (AC50) under setting [1] is 16.4 µM [falling, single point].

`O=C(c1cn(-c2ccccc2)nc1-c1ccccc1)N1CCOCC1`: under setting [1], the AC50 is 14.1 µM [rising, partial curve, poor fit].

Take `Cc1ccccc1Nc1cc(C(=O)NCC2CCCO2)c2ccccc2n1` (stereo unspecified): the AC50 under setting [1] is 7.94 µM [falling, partial curve].

As for `O=C1C(C=NCc2ccco2)=C(O)c2ccccc21`, the AC50 under setting [1] is 35.5 µM [falling, single point].

On to `COc1ccc(-c2cc3nc(C)cc(NCCO)n3n2)cc1`, for which the AC50 under setting [1] was 35.5 µM [falling, single point].

As for `O=C(CSc1nnnn1Cc1ccccc1)Nc1ccccc1`, the AC50 under setting [1] was 3.55 µM [rising, partial curve, poor fit].

Take `O=C(O)C=C1CCN(c2ncc(C(F)(F)F)cc2Cl)CC1`: the AC50 under setting [1] is 12.6 µM [falling, partial curve].

Consider `COc1cc(C(c2c(C)[nH][nH]c2=O)c2c(C)[nH][nH]c2=O)cc(OC)c1OC`, for which the AC50 under setting [1] is 35.5 µM [falling, single point].

With `O=c1[nH]n(-c2ccccn2)c(=O)c2ccccc12`, the AC50 under setting [1] is 11.2 µM [rising, partial curve].

Take `O=C(c1sc2cc([N+](=O)[O-])ccc2c1Cl)N1CCCCC1`: the AC50 under setting [1] was 4.61 µM [falling, full curve, poor fit].

As to `O=C(O)CC(SCC(=O)Nc1ccccc1)C(=O)O` (stereo unspecified), the half-maximal activity concentration (AC50) under setting [1] is 0.708 µM [rising, full curve, poor fit].

As to `Cc1ccnc(NC(=O)c2ccc(S(=O)(=O)N3CCCCC3)cc2)c1`, under setting [1], the AC50 is 9.2 µM [falling, partial curve].

`COc1cccc(C(=O)Nc2nc(-c3ccccc3)c(-c3ccccc3)o2)c1`: the concentration at half-maximal activity (AC50) under setting [1] was 1.84 µM [falling, full curve].

Turning to `CCOC(=O)c1nnn(-c2nonc2N)c1-c1ccc(F)cc1`, the AC50 under setting [1] was 0.631 µM [rising, partial curve, poor fit].

For the compound `COc1ccccc1NC(=O)CSc1nc(N)c(-c2ccccc2)c(=O)[nH]1`, under setting [1], the AC50 is 7.94 µM [falling, partial curve].

Take `COc1cccc(C(=O)C(C#N)=C(SC)SC)c1`: the AC50 under setting [1] was 20 µM [falling, single point].

Take `O=c1c2oc3ccccc3c2ncn1Cc1ccccc1F`: the AC50 under setting [1] is 0.891 µM [falling, full curve, poor fit].

For the compound `CC(=O)Nc1ccc(S(=O)(=O)N2CCC(c3nc4ccccc4[nH]3)CC2)cc1`, the AC50 under setting [1] was 14.6 µM [rising, single point].

For the compound `c1ccc(-c2ccc(OCCCNC3CCCC3)cc2)cc1`, the AC50 under setting [1] is 22.4 µM [falling, single point].

As to `O=C(c1cc(S(=O)(=O)N2CCOCC2)ccc1Cl)N1CCC(Cc2ccccc2)CC1`, the AC50 under setting [1] was 20.6 µM [falling, single point].

For `COc1ccc(OCC(=O)N/N=C(\C)c2ccc(-n3ccnc3)cc2)cc1`, the AC50 under setting [1] is 0.651 µM [rising, partial curve, poor fit].

For the compound `CC(=O)Nc1cccc(C(=O)OCC(=O)Nc2nnc(-c3ccccc3)o2)c1`, the AC50 under setting [1] was 2.06 µM [rising, partial curve, poor fit].

Consider `O=C(O)CC(SCC(=O)Nc1ccc(Cl)c(S(=O)(=O)N2CCOCC2)c1)C(=O)O` (stereo unspecified), for which the AC50 under setting [1] was 1.26 µM [falling, full curve, poor fit].

Consider `Cc1ccc(SCCC(=O)Nc2cccc(N(C)S(C)(=O)=O)c2)cc1`, for which, under setting [1], the half-maximal activity concentration (AC50) was 13 µM [rising, partial curve, poor fit].

Take `COc1ccc(C)cc1S(=O)(=O)Nc1cccnc1`: the AC50 under setting [1] is 6.31 µM [falling, partial curve, poor fit].

Take `COc1cc(/C=N/Nc2ccc(Cl)c(C(=O)O)c2)ccc1OC(=O)c1cccs1`: under setting [1], the AC50 is 7.94 µM [falling, partial curve].

Take `Cc1oc2cc(O)ccc2c(=O)c1Oc1ccc2ccccc2c1`: the AC50 under setting [1] was 11.2 µM [falling, partial curve, poor fit].

Consider `O=C(NCc1ccccc1Cl)c1ccccc1Oc1ccccc1`, for which the AC50 under setting [1] is 3.66 µM [rising, full curve].

Turning to `O=C(CCc1nc2ccccc2c(=O)[nH]1)Nc1ccc(F)c([N+](=O)[O-])c1`, the AC50 under setting [1] is 15.8 µM [falling, partial curve, poor fit].

With `O=S1(=O)CCC(=Nc2ccc(Cl)cc2)c2ccsc21`, the AC50 under setting [1] was 22.4 µM [rising, single point].
